Assay results reported in US20110318757A1.
These are yes or no findings as the source states them, for the method shown. Some results given as binding are weak or reduced against the parent protein; the word gives no strength.

Key:
[1] = molecular target: 32-mer MUC1 peptide (human); test: ELISA, 32-mer MUC1 peptide immobilized in microtitre wells, IgG about 0.03 to 8000 ng/well, A450-A620 (preliminary results according to the legend)
[2] = molecular target: 32-mer MUC1 peptide (human); test: titration ELISA, MUC1 peptide (32mer Cys) 50 ng/well, IgG diluted 1:3.16 from 100 µg/mL, detection goat anti-human IgG (Fc) HRP, TMB; mean of three plates, BSA value subtracted; A450-A620
[3] = molecular target: 32-mer MUC1 peptide (human); test: ELISA on MUC1 peptide (32 mer cys) 50 ng/well after storage at 37 °C for 0-28 days (20 µg/ml solution mixed 1:1 with PBS, inactivated human serum or human serum); detection goat anti-human IgG (Fc) HRP, TMB; signal in % of day 0
[4] = molecular target: 32-mer MUC1 peptide (human); test: ELISA, IgG on coated 32-mer MUC1 peptide

B1: R764-D11 (HT186-D11 IgG) (antibody, V domains shown)
VH: QMQLVQSEAELKKPGASVKVSCKASGYSFTGHYMHWVRQAPGQGLEWMGWIDPVTGGTKYAQNFQGWVTMTRDTSIRTAYLELSRLRSDDTAMYYCAREVTGDRGQFDKWGQGTLVTVAS
VL: QSVLTQPPSVSVAPGKTARITCGGNNIGSKSVHWYQQKPGQAPALVIYYGSNRPSGIPERFSGSNSGNTATLTISRVEAGDEADYYCQVWDSSSDWVFGGGTKLTVLG
[1]
  binding: binds
[2]
  binding: binds
[3]
  binding: binds

B2: R764-B7 (HT186-B7 IgG) (antibody, V domains shown)
VH: QMQLVQSGAEVKKPGASVKVSCKASGYTFTGHYMHWVRQAPGQGLEWMGWIDPVTGGTKYAQNFQGWVTMTRDTSIRTAYMELSRLRSDDTAMYYCAREVTGDRGQFDKWGQGTLVTVAS
VL: QSVLTQPPSVSVAPGKTARITCGGNNIGSKSVHWYQQKPGQAPALVIYYGSYRPSGIPERFSGSNYGNTATLTIRRVEAGDEADYYCQVWDSSSDWVFGGGTKLTVLG
[1]
  binding: binds
[2]
  binding: binds

B3: R764-G2 (HT186-G2 IgG) (antibody, V domains shown)
VH: RMQLVQSGAEVKKPGASVKLSCKASGYTFAGHYMHWVRQAPGRGLEWMGWIDPVTGGTKYAQNFQGWVTMTRDTSIRTAYMELSRLRSDDTAMYYCAREVTGDRGQFDKWGQGTLVTVAS
VL: QSVLTQPPSVSVAPGKTARITCGGNNIGSKSVHWYQQKPGQAPVLVIYYGSDRSSGIPERFSGSNSGNTATLTISRVEAGDEADYYCQVWDSSSDWVFGGGTKLTVLG
[4]
  binding: binds
[1]
  binding: binds
[2]
  binding: binds
